# This is one part of the list.
# B1: pullulanase (Streptococcus pyogenes), Q8KLP1 (protein)
# chain: MKKKVNQGSKRYQYLLKKWGIGFVIAATGTVMLGCIPSILTHQVAAKTIVGLARDEAQQGDGNAKSGDGFQSSSKEAKPVLDSSSANPASIAEHHLRMHFKTLPAGESLGSLGLWVWGDVDQPSKDWPNGAITMTKAKKDDYGYYLDVPLAAKHRQQVSYLINNKAGENLSKDQHIPLLTPKMNEVWIDENYHAHAYRPLKKGYLRINYHNQSGHYDNLAVWTFKDVKTPTTDWPNGLDLSHKGPYGAYVDVPLKEGANEIGFLILDKSKTGDAIKVQPKDYLFKELDNHTQVFVKDTDPKVYNNPYYIDQVSLKGAEQTTPNEIKAIFTTLDGLDEDAVKQNIKITDKAGKTVAIDELTLDKDKSVMTLKGDFKAQGAVYTVTFGEVSQVARQSWQLKDKLYAYDGELGATLAKDGSVDLALWSPSADSVKVVVYDKQDQTKVVGQADLTKSDKGVWRAHLTSDSVKGISDYTGYYYLYEITRGQEKVMVLDPYAKSLAAWNDATATDDIKTAKAAFIDPSKLGPTGLDFAKINNFKKREDAIIYEAHVRDFTSDKALEGKLTHPFGTFSAFVEQLDYLKDLGVTHVQLLPVLSYFYANELDKTRSTAYTSSDNNYNWGYDPQHYFALSGMYSANPNDPALRIAELKNLVNEIHKRGMGVIFDVVYNHTARTYLFEDLEPNYYHFMNADGTARESFGGGRLGTTHAMSRRILVDSITYLTREFKVDGFRFDMMGDHDAAAIEQAFKAAKAINPNTIMIGEGWRTYQGDEGKKEIAADQDWMKATNTVGVFSDDIRNTLKSGFPNEGTAAFITGGAKNLEGLFKTIKAQPSNFEADAPGDVVQYIAAHDNLTLHDVIAKSINKDPKVAEEEIHKRIRLGNTMILTAQGTAFIHSGQEYGRTKQLLNPDYKTKVSDDKVPNKATLIDAVAQYPYFIHDSYDSSDAVNHFDWAKATDSIAHPISNQTKAYTQGLIALRRSTDAFTKATKAEVDRDVTLITQAGQDGIQQEDLIMGYQTVASNGDRYAVFVNADNKTRKVVLPQAYRYLLGAQVLADAEQVGVTAIAKPKGVQFTKEGLTIDGLTALVLKVSSKTANPSQQKSQTDNHQTKTPDGSKDLDKSLMTRPKRAKTNQKLPKTGEAPSKGLLAAGVALLLLAISLLMKRQKD
# Columns and labels:
# Assay in all cases: glycan array binding signal (z-score within array); higher = stronger binding
# Details in all cases: glycan notation: IUPAC condensed, linker removed
# GalNAc(b1-3)GalNAc = biological target: GalNAc(b1-3)GalNAc
# How it was run: (§1)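 Glycan array data were curated from 3228 arrays in the Consortium for Functional Glycomics database and kept only where the protein sequence was available. Glycan names were converted to IUPAC-condensed notation, and columns mapping to the same glycan were averaged. The binding signal is a within-array Z-score, averaged across arrays of the same protein sequence at different concentrations or buffers and across linkers. Negative Z-scores can be read as non-binding.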
# GalNAc(b1-4)GlcNAc = biological target: GalNAc(b1-4)GlcNAc
# How it was run: as §1
# [1] = biological target: GalNAc(b1-4)GlcNAc(b1-2)Man(a1-3)[GalNAc(b1-4)GlcNAc(b1-2)Man(a1-6)]Man(b1-4)GlcNAc(b1-4)GlcNAc
# How it was run: as §1
# GalNAc(b1-6)GalNAc = biological target: GalNAc(b1-6)GalNAc
# How it was run: as §1
# Glc(a1-4)Glc = biological target: Glc(a1-4)Glc
# How it was run: as §1
# Glc(a1-6)Glc(a1-6)Glc = biological target: Glc(a1-6)Glc(a1-6)Glc
# How it was run: as §1
# Glc(b1-4)Glc = biological target: Glc(b1-4)Glc
# How it was run: as §1
# Glc(b1-6)Glc = biological target: Glc(b1-6)Glc
# How it was run: as §1
# GlcA(b1-3)Gal = biological target: GlcA(b1-3)Gal
# How it was run: as §1
# GlcA(b1-3)GlcNAc = biological target: GlcA(b1-3)GlcNAc
# How it was run: as §1
# GlcA(b1-6)Gal = biological target: GlcA(b1-6)Gal
# How it was run: as §1
# [2] = biological target: GlcNAc(a1-3)Gal(b1-4)GlcNAc
# How it was run: as §1
# [3] = biological target: GlcNAc(a1-4)Gal(b1-3)GlcNAc
# How it was run: as §1
# [4] = biological target: GlcNAc(a1-4)Gal(b1-4)GalNAc
# How it was run: as §1
# [5] = biological target: GlcNAc(a1-4)Gal(b1-4)GlcNAc
# How it was run: as §1
# [6] = biological target: GlcNAc(a1-4)Gal(b1-4)GlcNAc(b1-3)Gal(b1-4)Glc
# How it was run: as §1
# [7] = biological target: GlcNAc(a1-4)Gal(b1-4)GlcNAc(b1-3)Gal(b1-4)GlcNAc
# How it was run: as §1
# [8] = biological target: GlcNAc(a1-4)Gal(b1-4)GlcNAc(b1-3)Gal(b1-4)GlcNAc(b1-3)Gal(b1-4)GlcNAc
# How it was run: as §1
# [9] = biological target: GlcNAc(a1-4)Gal(b1-4)GlcNAc(b1-3)Gal(b1-4)[Fuc(a1-3)]GlcNAc(b1-3)Gal(b1-4)[Fuc(a1-3)]GlcNAc
# How it was run: as §1
# [10] = biological target: GlcNAc(a1-6)Gal(b1-4)GlcNAc
# How it was run: as §1
# [11] = biological target: GlcNAc(b1-2)Gal(b1-3)GalNAc
# How it was run: as §1
# [12] = biological target: GlcNAc(b1-2)Man(a1-3)[GlcNAc(b1-2)Man(a1-6)]Man(b1-4)GlcNAc(b1-4)GlcNAc
# How it was run: as §1
# [13] = biological target: GlcNAc(b1-2)Man(a1-3)[GlcNAc(b1-2)Man(a1-6)]Man(b1-4)GlcNAc(b1-4)[Fuc(a1-6)]GlcNAc
# How it was run: as §1
# [14] = biological target: GlcNAc(b1-2)Man(a1-3)[GlcNAc(b1-4)][GlcNAc(b1-2)Man(a1-6)]Man(b1-4)GlcNAc(b1-4)GlcNAc
# How it was run: as §1
# [15] = biological target: GlcNAc(b1-2)[GlcNAc(b1-4)]Man(a1-3)[GlcNAc(b1-2)Man(a1-6)]Man(b1-4)GlcNAc(b1-4)GlcNAc
# How it was run: as §1
# [16] = biological target: GlcNAc(b1-2)[GlcNAc(b1-4)]Man(a1-3)[GlcNAc(b1-4)][GlcNAc(b1-2)Man(a1-6)]Man(b1-4)GlcNAc(b1-4)GlcNAc
# How it was run: as §1
# [17] = biological target: GlcNAc(b1-2)[GlcNAc(b1-4)]Man(a1-3)[GlcNAc(b1-4)][GlcNAc(b1-2)[GlcNAc(b1-6)]Man(a1-6)]Man(b1-4)GlcNAc(b1-4)GlcNAc
# How it was run: as §1
# [18] = biological target: GlcNAc(b1-2)[GlcNAc(b1-6)]Man(a1-6)[GlcNAc(b1-2)Man(a1-3)]Man(b1-4)GlcNAc(b1-4)GlcNAc
# How it was run: as §1
# [19] = biological target: GlcNAc(b1-2)[GlcNAc(b1-6)]Man(a1-6)[GlcNAc(b1-2)Man(a1-3)][GlcNAc(b1-4)]Man(b1-4)GlcNAc(b1-4)GlcNAc
# How it was run: as §1
# GlcNAc(b1-3)Gal = biological target: GlcNAc(b1-3)Gal
# How it was run: as §1
# [20] = biological target: GlcNAc(b1-3)Gal(b1-3)GalNAc
# How it was run: as §1
# GlcNAc(b1-3)Gal(b1-4)Glc = biological target: GlcNAc(b1-3)Gal(b1-4)Glc
# How it was run: as §1
# [21] = biological target: GlcNAc(b1-3)Gal(b1-4)GlcNAc
# How it was run: as §1
# [22] = biological target: GlcNAc(b1-3)Gal(b1-4)GlcNAc(b1-3)Gal(b1-4)GlcNAc
# How it was run: as §1
# GlcNAc(b1-3)GalNAc = biological target: GlcNAc(b1-3)GalNAc
# How it was run: as §1
# GlcNAc(b1-3)Man = biological target: GlcNAc(b1-3)Man
# How it was run: as §1
# [23] = biological target: GlcNAc(b1-3)[GlcNAc(b1-4)][GlcNAc(b1-6)]GlcNAc
# How it was run: as §1
# [24] = biological target: GlcNAc(b1-3)[GlcNAc(b1-6)]Gal(b1-4)GlcNAc
# How it was run: as §1
# [25] = biological target: GlcNAc(b1-3)[GlcNAc(b1-6)]GalNAc
# How it was run: as §1
# [26] = biological target: GlcNAc(b1-4)Gal(b1-4)GlcNAc
# How it was run: as §1
# GlcNAc(b1-4)GlcNAc = biological target: GlcNAc(b1-4)GlcNAc
# How it was run: as §1
# [27] = biological target: GlcNAc(b1-4)GlcNAc(b1-4)GlcNAc
# How it was run: as §1
# [28] = biological target: GlcNAc(b1-4)GlcNAc(b1-4)GlcNAc(b1-4)GlcNAc(b1-4)GlcNAc
# How it was run: as §1
# [29] = biological target: GlcNAc(b1-4)GlcNAc(b1-4)GlcNAc(b1-4)GlcNAc(b1-4)GlcNAc(b1-4)GlcNAc
# How it was run: as §1
# [30] = biological target: GlcNAc(b1-4)[GlcNAc(b1-6)]GalNAc
# How it was run: as §1
binder,measurement,setting,value
B1,glycan array binding signal (z-score),GalNAc(b1-3)GalNAc,-0.967
same,glycan array binding signal (z-score),GalNAc(b1-4)GlcNAc,-0.76
same,glycan array binding signal (z-score),[1],1.1
same,glycan array binding signal (z-score),GalNAc(b1-6)GalNAc,-0.145
same,glycan array binding signal (z-score),Glc(a1-4)Glc,-0.166
same,glycan array binding signal (z-score),Glc(a1-6)Glc(a1-6)Glc,2.49
same,glycan array binding signal (z-score),Glc(b1-4)Glc,-0.054
same,glycan array binding signal (z-score),Glc(b1-6)Glc,1.29
same,glycan array binding signal (z-score),GlcA(b1-3)Gal,-0.708
same,glycan array binding signal (z-score),GlcA(b1-3)GlcNAc,2.61
same,glycan array binding signal (z-score),GlcA(b1-6)Gal,1.32
same,glycan array binding signal (z-score),[2],-0.526
same,glycan array binding signal (z-score),[3],0.217
same,glycan array binding signal (z-score),[4],-1.56
same,glycan array binding signal (z-score),[5],-0.735
same,glycan array binding signal (z-score),[6],0.345
same,glycan array binding signal (z-score),[7],-0.11
same,glycan array binding signal (z-score),[8],0.594
same,glycan array binding signal (z-score),[9],2.15
same,glycan array binding signal (z-score),[10],1.72
same,glycan array binding signal (z-score),[11],-1.26
same,glycan array binding signal (z-score),[12],-0.014
same,glycan array binding signal (z-score),[13],1.71
same,glycan array binding signal (z-score),[14],0.33
same,glycan array binding signal (z-score),[15],-0.784
same,glycan array binding signal (z-score),[16],-0.733
same,glycan array binding signal (z-score),[17],1.59
same,glycan array binding signal (z-score),[18],-0.795
same,glycan array binding signal (z-score),[19],-0.549
same,glycan array binding signal (z-score),GlcNAc(b1-3)Gal,1.89
same,glycan array binding signal (z-score),[20],-0.328
same,glycan array binding signal (z-score),GlcNAc(b1-3)Gal(b1-4)Glc,-0.26
same,glycan array binding signal (z-score),[21],-0.767
same,glycan array binding signal (z-score),[22],-1.14
same,glycan array binding signal (z-score),GlcNAc(b1-3)GalNAc,0.154
same,glycan array binding signal (z-score),GlcNAc(b1-3)Man,0.318
same,glycan array binding signal (z-score),[23],-0.834
same,glycan array binding signal (z-score),[24],-0.147
same,glycan array binding signal (z-score),[25],0.545
same,glycan array binding signal (z-score),[26],0.614
same,glycan array binding signal (z-score),GlcNAc(b1-4)GlcNAc,0.664
same,glycan array binding signal (z-score),[27],-1.18
same,glycan array binding signal (z-score),[28],0.317
same,glycan array binding signal (z-score),[29],-0.949
same,glycan array binding signal (z-score),[30],0.817

# Some of the entries so far, with bars between the fields.
binder | measurement | setting | value
B1 | glycan array binding signal (z-score) | [11] | -1.26
same | glycan array binding signal (z-score) | [12] | -0.014

# From the supplement of paper PMC8728848
